The supplement of paper PMC10735217
Counter-ions that a name gives are not always drawn. The list shows a part of the results. Single values are uncertain here, since repeats match poorly.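 Human kidney-derived cells stably carry a construct in which eight TEAD-binding elements drive luciferase, measured by luminescence in a drug-repurposing library screen. A hit is any compound whose signal exceeds the plate mean by more than five robust Z scores.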

Tested on: HEK293A TEAD-LUC reporter
Test: TEAD-luciferase reporter activity (YAP activation), robust Z score vs plate; higher = stronger YAP/TEAD activation
Conditions: 24 h

Compound | TEAD-luciferase reporter activity (compound concentration: 200 nM) | TEAD-luciferase reporter activity (compound concentration: 2 uM) | TEAD-luciferase reporter activity (compound concentration: 10 uM)
CC(C)[C@](C#N)(CCCN(C)CCc1ccccc1)c1ccccc1 | inactive: -0.0342 | inactive: -0.348 | inactive: 0.00371
COc1ccc(CCNCCCNC(=O)c2ccc([N+](=O)[O-])cc2)cc1OC | inactive: -0.185 | inactive: 0.324 | inactive: -1.03
O=C(OCC(COC(=O)c1cccnc1)(COC(=O)c1cccnc1)COC(=O)c1cccnc1)c1cccnc1 [niceritrol] | inactive: 0.645 | inactive: -1.51 | inactive: -0.433
CC(=O)OC/C=C(C)/C=C/C=C(C)/C=C/C1=C(C)CCCC1(C)C [Vitamin A (acetate)] | inactive: -0.808 |  | inactive: -1.23
CC(=O)OC/C=C(C)/C=C/C=C(C)/C=C/C1=C(C)CCCC1(C)C [Retinol acetate] |  | inactive: -0.523 | 
Cn1nnc2ccc([C@H](c3ccc(Cl)cc3)n3cncn3)cc21 | inactive: -0.492 | inactive: -0.718 | inactive: 1.97
CC(C)c1cc(C(C)C)c(-c2csc(N(CCN(C)C)Cc3cccnc3)n2)c(C(C)C)c1 [Foropafant] | inactive: 0.228 | inactive: -0.547 | inactive: -0.577
COC(=O)[C@@H](N)CS | inactive: 0.208 | inactive: -1.45 | inactive: -1.31
CCOc1noc2cc(OCCC3CCN(c4ccc(C)nn4)CC3)ccc12 [Vapendavir] | inactive: -0.653 | inactive: 0.449 | inactive: 3
CCC1(C)OC(=O)N(C)C1=O (stereo not given) | inactive: 1.85 | inactive: -2.2 | inactive: -0.989
COC(=O)C1=C(C)NC(C)=C(C(=O)OCC(C)C)C1c1ccccc1[N+](=O)[O-] (stereo not given) [nisoldipine] | inactive: 0.726 | inactive: -2.04 | inactive: 0.573
COc1ccc(C(=O)N2Cc3ccccc3CC23CCCN(C(=O)CN)C3)cc1 (stereo not given) | inactive: -1.1 |  | inactive: -3.03
COC1=CC(=O)C[C@@H](C)[C@]12Oc1c(Cl)c(OC)cc(OC)c1C2=O [griseofulvin] |  | inactive: 2.01 | 
COC1=CC(=O)C[C@@H](C)[C@]12Oc1c(Cl)c(OC)cc(OC)c1C2=O [Griseofulvin126-07-8] | inactive: -0.782 |  | inactive: 3.82
O=C1CCC2CCC(=O)N12 [rolziracetam] | inactive: -1.37 | inactive: -2.5 | inactive: 0.514
Nc1ccccc1NC(=O)c1ccc(CNC(=O)OCc2cccnc2)cc1 [entinostat] |  | active: 18.6 | 
Nc1ccccc1NC(=O)c1ccc(CNC(=O)OCc2cccnc2)cc1 [Entinostat (MS-275, SNDX-275)] | inactive: 0.477 |  | active: 6.22
CSC[C@H]1O[C@@H](n2cnc3c(N)ncnc32)[C@H](O)[C@@H]1O | inactive: -0.813 | inactive: -1.59 | inactive: 0.926
CCCCCCCCC(=O)O | inactive: 4.69 | inactive: -1.23 | inactive: -0.21

Compound | TEAD-luciferase reporter activity (compound concentration: 200 nM) | TEAD-luciferase reporter activity (compound concentration: 2 uM) | TEAD-luciferase reporter activity (compound concentration: 10 uM)
COC(=O)c1c(C(=O)OC)c(-c2ccc(OC)c(OC)c2)c2c(OC)c(OC)c(OC)cc2c1O | active: 6.04 | inactive: -0.0305 | inactive: 0.621
NCC(O)CC(=O)O (stereo not given) | inactive: -1.58 | inactive: -0.188 | inactive: -0.735
c1cnc(NCc2ccc(CNc3ncccn3)cc2)nc1 | inactive: -1.28 | inactive: 0.2 | inactive: 1.65
O=C(O)CCCCCCc1c(O)nc(O)n1CCC(O)C1CCCCC1 (stereo not given) | inactive: 0.341 | inactive: -0.812 | inactive: 0.511
O=C(NCc1ccsc1)c1cnc(Nc2cccc(Cl)c2)nc1C(F)(F)F | inactive: -1.15 | inactive: -0.396 | inactive: -1.06
O=[Si](O)O[Si](O)(O)O[Si](=O)O [Magnesium trisilicate hydrate] | inactive: 0.152 | inactive: 0.167 | inactive: 1.59
O=C(O)c1cc(=O)c2c(OCC(O)COc3cccc4oc(C(=O)O)cc(=O)c34)cccc2o1 [Disodium cromoglycate] | inactive: -1.74 |  | inactive: -1.6
O=C(O)c1cc(=O)c2c(OCC(O)COc3cccc4oc(C(=O)O)cc(=O)c34)cccc2o1 [cromoglicic acid] |  | inactive: -1.12 | 
Clc1ccc(/C(=C/c2ccc(Cl)cc2Cl)Cn2ccnc2)cc1 | inactive: -1.32 | inactive: -0.0279 | inactive: -1.2
CN1C(=O)c2ccncc2/C(=C\CCCCC(=O)O)c2ccccc21 | inactive: -0.918 | inactive: 0.222 | inactive: 2.75
O=C([O-])CCCCCCCCC(=O)[O-] [disodium sebacate] | inactive: -0.117 | inactive: -0.0746 | inactive: -0.193
CCC(CC)(CC(=O)Nc1cccc(/C=C/c2nc(C3CCC3)cs2)c1)C(=O)O [Cinalukast] | inactive: -1 | inactive: 0.344 | inactive: 0.35
O=c1ccn([C@@H]2O[C@H](COP(=O)(O)OP(=O)(O)OP(=O)(O)O)[C@@H](O)[C@H]2O)c(=O)[nH]1 [Uridine triphosphate] | inactive: 0.297 | inactive: -0.546 | inactive: -0.665
CC(C)(C)NCC(O)COc1ccc(O)c2c1C1CCC2CC1 (stereo not given) [Nafetolol] | inactive: -1.57 | inactive: 0.376 | inactive: 1.12
O=C(c1ccc(F)cc1)C1CCN(CCCN2c3ccccc3Sc3ccc(C(F)(F)F)cc32)CC1 [duoperone] | inactive: -1.21 | inactive: -0.978 | inactive: -0.317
C=C1/C(=C\C=C2/CCC[C@]3(C)C([C@@H](C)C/C=C/C(O)(CC)CC)=CC[C@@H]23)C[C@@H](O)C[C@@H]1F | inactive: 0.525 | inactive: -0.572 | inactive: -1.09
CC(=O)NC1C(O)OC(CO)C(O)C1OC1OC(C(=O)O)C(OC2OC(CO)C(O)C(OC3OC(C(=O)O)C(O)C(O)C3O)C2NC(C)=O)C(O)C1O (stereo not given) [Hyaluronic Acid] | inactive: -0.831 |  | inactive: 1.62
COC[C@H](C)NC(=O)c1nc(N2CC[C@@H](NC(=O)c3[nH]c(C)c(Cl)c3Cl)[C@@H](OC)C2)sc1C(=O)O | inactive: -1.37 | inactive: -1.22 | inactive: 0.418
CC(C)C(NC(=O)C(CC(=O)O)NC(=O)C(CCCCN)NC(=O)C(N)CCCNC(=N)N)C(=O)NC(Cc1ccc(O)cc1)C(=O)O (stereo not given) [thymopentin] | inactive: -2.81 | inactive: -0.256 | inactive: -0.674

Compound | TEAD-luciferase reporter activity (compound concentration: 200 nM) | TEAD-luciferase reporter activity (compound concentration: 2 uM) | TEAD-luciferase reporter activity (compound concentration: 10 uM)
OC(CNCC(O)C1COc2ccccc2O1)C1COc2ccccc2O1 (stereo not given) | inactive: -0.628 | inactive: -1.02 | inactive: -1.34
N[C@@H]1CC[C@@H](c2ccc(Cl)c(Cl)c2)c2ccccc21 [Dasotraline] | inactive: -0.0204 | inactive: -0.966 | inactive: -0.32
O=C(O)Cn1c2c(c3cc(F)ccc31)CN(C(=O)c1cccc3ccccc13)CC2 [Setipiprant] | inactive: -1.19 | inactive: -0.792 | inactive: 0.5
C[n+]1ccc(SCC2=C(C(=O)O)N3C(=O)C(NC(=O)/C(=N\OC4CCCC4)c4csc(N)n4)[C@H]3CS2)cc1 (stereo not given in full) | inactive: -1.2 | inactive: -1.49 | inactive: -0.448
Cc1cc(COc2ccc(Oc3ccc(Cl)cc3)cc2)n(O)c(=O)c1 [Rilopirox] | inactive: 1.36 | inactive: -1.87 | inactive: -2.11
O=c1[nH]c2sc(Cl)c(-c3ccc4c(c3O)CCCC4)c2c(O)c1-c1ccccc1 | inactive: -0.702 | inactive: -0.723 | inactive: 3.54
COc1cc(C)c(Cc2cnc(N)nc2N)cc1OC | inactive: -0.0167 | inactive: 1.75 | inactive: 2.87
COc1ccc2c(c1)CN(C(=O)C(=O)O)CCS2 [aladorian] | inactive: 0.843 | inactive: -2.05 | inactive: 0.805
CC1=C(CC(=O)NCc2ccncc2)c2cc(F)ccc2/C1=C/c1ccc(S(C)=O)cc1 (stereo not given) | inactive: -2.11 | inactive: -1.22 | inactive: 1.52
O=C(C1CCCN1c1nc2ncccc2o1)N1CCCC1 (stereo not given) | inactive: 0.158 |  | inactive: 2.53
O=S(=O)([O-])CCS [uromitexan] |  | inactive: -1.21 | 
O=S(=O)([O-])CCS | inactive: -1.07 |  | inactive: -1.2
COc1ccc2c(c1)C(c1ccc(F)cc1)=C(CN1CCCC1)CO2 [AX-024 hydrochloride] | inactive: -1.41 | inactive: -1.1 | inactive: -0.847
Cc1ccc(F)c(NC(=O)Nc2ccc(-c3cccc4[nH]nc(N)c34)cc2)c1 [Linifanib] | inactive: -1.06 | inactive: 2.9 | inactive: -0.302
CN(C(=S)NN=C(c1ccccn1)c1ccccn1)C1CCCCC1 | inactive: -0.366 | inactive: -0.611 | inactive: -0.409
CCCCN(CCCC)CC(O)c1cc(-c2ccc(Cl)cc2)nc2c(Cl)cc(Cl)cc12 (stereo not given) | inactive: 0.567 | inactive: -0.675 | inactive: 0.707
Oc1ccc2c(c1)CC[C@H](c1ccccc1)[C@H]2c1ccc(OCCN2CCCC2)cc1 [Lasofoxifene tartrate] | inactive: -0.69 | inactive: -0.257 | inactive: 0.175
COc1ccc(CS(=O)c2ncccc2C(=O)Nc2ccnc(N(C)C)c2)c(OC)c1 (stereo not given) | inactive: 2.34 | inactive: 0.495 | inactive: 1.9

Some values from above:
For TEAD-luciferase reporter activity (compound concentration: 200 nM), Cc1ccc(F)c(NC(=O)Nc2ccc(-c3cccc4[nH]nc(N)c34)cc2)c1 [Linifanib] is listed with inactive: -1.06
For TEAD-luciferase reporter activity (compound concentration: 10 uM), CCCCN(CCCC)CC(O)c1cc(-c2ccc(Cl)cc2)nc2c(Cl)cc(Cl)cc12 (stereo not given) is listed with inactive: 0.707
